# Measurements: the supplement of paper PMC4604168 (melanoma cell lines)
# The other results are listed elsewhere or left out. Repeats are few or missing, and single values can be far off.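 Cells were imaged in 1,536-well plates, and nuclei stained with an antibody against cleaved PARP were counted against all DNA-stained nuclei to give the apoptosis fraction. Screening doses were chosen to leave most cells alive, and resting and induced cleaved-PARP levels differ strongly between cell lines.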
# How the values were obtained:
# Experiment in all cases: cleaved PARP positive nuclei fraction relative to DMSO control; melanoma cells; higher = more apoptosis
# Conditions in all cases: library dose: low library concentration; 72 h
# MZ2-MEL = tested on: MZ2-MEL
# MeWo = tested on: MeWo
# RPMI7951 = tested on: RPMI7951
# RVH-421 = tested on: RVH-421
# SkMel28 = tested on: SkMel28
# SkMel2 = tested on: SkMel2
# SkMel30 = tested on: SkMel30
# SkMel5 = tested on: SkMel5
# UACC257 = tested on: UACC257
# UACC62 = tested on: UACC62
# WM115 = tested on: WM115
# WM1716 = tested on: WM1716
# WM1745 = tested on: WM1745
# WM3526 = tested on: WM3526
# WM3619 = tested on: WM3619
# WM451Lu = tested on: WM451Lu
Structure (SMILES),cleaved PARP positive nuclei fraction (MZ2-MEL) [%],cleaved PARP positive nuclei fraction (MeWo) [%],cleaved PARP positive nuclei fraction (RPMI7951) [%],cleaved PARP positive nuclei fraction (RVH-421) [%],cleaved PARP positive nuclei fraction (SkMel28) [%],cleaved PARP positive nuclei fraction (SkMel2) [%],cleaved PARP positive nuclei fraction (SkMel30) [%],cleaved PARP positive nuclei fraction (SkMel5) [%],cleaved PARP positive nuclei fraction (UACC257) [%],cleaved PARP positive nuclei fraction (UACC62) [%],cleaved PARP positive nuclei fraction (WM115) [%],cleaved PARP positive nuclei fraction (WM1716) [%],cleaved PARP positive nuclei fraction (WM1745) [%],cleaved PARP positive nuclei fraction (WM3526) [%],cleaved PARP positive nuclei fraction (WM3619) [%],cleaved PARP positive nuclei fraction (WM451Lu) [%]
"CC(=O)O[C@@]12CO[C@@H]1C[C@H](O)[C@@]1(C)C(=O)[C@H](O)C3=C(C)[C@@H](OC(=O)[C@H](O)[C@@H](NC(=O)OC(C)(C)C)c4ccccc4)C[C@@](O)([C@@H](OC(=O)c4ccccc4)[C@H]21)C3(C)C [Docetaxel] + Cn1cncc1[C@@](N)(c1ccc(Cl)cc1)c1ccc2c(c1)c(-c1cccc(Cl)c1)cc(=O)n2C [tipifarnib] (first compound 0.0001 µM, partner dose 0.01 µM)",1030,496,296,102,249,1030,203,92.8,284,342,317,786,157,119,150,253
"CCCCCCCCc1ccc(CCC(N)(CO)CO)cc1 [fingolimod] + COc1cc(Nc2ncc(F)c(Nc3ccc4c(n3)NC(=O)C(C)(C)O4)n2)cc(OC)c1OC [Tamatinib] (first compound 2 µM, partner dose 0.4 µM)",90.1,116,57.1,97.9,306,83.6,73.7,62.6,180,194,55.4,83.8,258,186,95.3,63.5
"CCN(CC)CCNC(=O)c1c(C)[nH]c(/C=C2\C(=O)Nc3ccc(F)cc32)c1C [sunitinib] + COc1cc2c(Oc3ccc4[nH]c(C)cc4c3F)ncnc2cc1OCCCN1CCCC1 [cediranib] (first compound 0.4 µM, partner dose 0.4 µM)",20.2,71.3,160,29.6,601,59,79.8,128,117,51.3,97.9,115,109,181,89.6,66.1
"Cn1sc(=O)n(Cc2ccccc2)c1=O + Oc1nc(-c2ccc(C(F)(F)F)cc2)nc2c1CSCC2 [XAV939] (first compound 0.4 µM, partner dose 2 µM)",147,124,137,72.1,49.1,67.6,73.6,93.6,122,760,46.3,44,93.9,85,97.2,212
"C[C@]1(O)C[C@@H](c2nc(-c3ccc4ccc(-c5ccccc5)nc4c3)c3c(N)nccn32)C1 + O=C1NC(=O)/C(=C/c2ccc(-c3ccc(F)cc3O)o2)S1 [AS252424] (first compound 0.4 µM, partner dose 1 µM)",255,54.8,124,110,117,142,88.5,66.8,220,77.7,54.3,182,109,88.5,94.2,43.7
"CC(=O)O[C@@]12CO[C@@H]1C[C@H](O)[C@@]1(C)C(=O)[C@H](O)C3=C(C)[C@@H](OC(=O)[C@H](O)[C@@H](NC(=O)OC(C)(C)C)c4ccccc4)C[C@@](O)([C@@H](OC(=O)c4ccccc4)[C@H]21)C3(C)C [Docetaxel] + COc1cc2c(Oc3ccc4[nH]c(C)cc4c3F)ncnc2cc1OCCCN1CCCC1 [cediranib] (first compound 0.0001 µM, partner dose 0.4 µM)",860,324,174,68.1,195,522,188,160,421,590,300,599,191,540,147,198
"COc1ccc(C2=N[C@@H](c3ccc(Cl)cc3)[C@@H](c3ccc(Cl)cc3)N2C(=O)N2CCNC(=O)C2)c(OC(C)C)c1 [Nutlin-3] + Cc1cc([N+](=O)[O-])ccc1NS(=O)(=O)c1cc(Cl)ccc1Cl [FH535] (first compound 0.1 µM, partner dose 1 µM)",142,117,86.7,165,75.9,55,87.1,79.2,99.9,99.3,240,156,92.8,68.3,88.3,69.7
"C[C@]1(O)C[C@@H](c2nc(-c3ccc4ccc(-c5ccccc5)nc4c3)c3c(N)nccn32)C1 + COc1cc(N2CCC(N3CCN(C)CC3)CC2)ccc1Nc1ncc(Cl)c(Nc2ccccc2S(=O)(=O)C(C)C)n1 [NVP-TAE684] (first compound 0.4 µM, partner dose 0.08 µM)",75,22.1,33.9,42.5,98.1,91.6,207,76.9,545,210,95.2,89,109,102,84.7,66.7
"Cn1cnc2c(F)c(Nc3ccc(Br)cc3Cl)c(C(=O)NOCCO)cc21 [selumetinib] + CCN(CC)CCCCNc1ncc2cc(-c3cc(OC)cc(OC)c3)c(NC(=O)NC(C)(C)C)nc2n1 [PD173074] (first compound 0.015 µM, partner dose 0.1 µM)",185,175,103,86.9,155,88.8,114,71,112,156,164,158,92.7,95.9,101,69.4
